Structures were worked out from names or drawings and are uncertain.

Amino acid sequences for entries named in this document (tags omitted).
UniProt P10415, whole entry: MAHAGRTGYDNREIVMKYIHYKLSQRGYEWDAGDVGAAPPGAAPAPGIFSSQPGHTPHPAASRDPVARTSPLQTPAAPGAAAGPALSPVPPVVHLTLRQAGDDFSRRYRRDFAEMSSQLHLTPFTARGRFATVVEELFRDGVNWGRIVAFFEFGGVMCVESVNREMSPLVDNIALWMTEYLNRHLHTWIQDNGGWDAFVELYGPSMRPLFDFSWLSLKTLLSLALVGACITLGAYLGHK
UniProt Q07817, whole entry: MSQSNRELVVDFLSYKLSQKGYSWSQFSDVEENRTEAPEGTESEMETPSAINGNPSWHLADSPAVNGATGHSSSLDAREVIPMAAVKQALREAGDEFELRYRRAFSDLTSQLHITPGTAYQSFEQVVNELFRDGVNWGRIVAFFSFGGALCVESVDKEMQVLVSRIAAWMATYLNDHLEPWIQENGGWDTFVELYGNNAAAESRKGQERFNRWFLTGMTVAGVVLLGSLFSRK

Series [1] relates to senescent cells (A549 cells). Description: Senescent cell viability assay (CellTiter-Glo), etoposide-induced senescent A549 cells. As to conditions: read-out: IC50 (µM, senescent cells), A549 cells made senescent with etoposide (10 µM), 72 h incubation. Background: In ATP-based viability assays light output follows the ATP content of the culture.
A short description of series [2]: Kinetic solubility in PBS, LC-MS/MS. As to conditions: 100 mM PBS, 1 hour shaking at room temperature.
Series [3] concerns oxygen-induced retinopathy (OIR) mouse model. Description: Oxygen-induced retinopathy (OIR) mouse model. To be noted: intravitreal (IVT), 1 µL of 200 µM on P12, read on P17; Figure 1.
Series [4] concerns imiquimod-induced psoriasis mouse model. Briefly: Imiquimod-induced psoriasis mouse model. To be noted: daily topical application, 1 mg/kg; day 7; Figure 2.
Series [5] has as its system bleomycin-induced scleroderma model. Briefly: Bleomycin-induced scleroderma model. As to conditions: daily topical application, 1 mg/kg; 4 weeks; Figure 3.
Series [6] has as its system animal model of idiopathic pulmonary fibrosis (IPF). Description: Animal model of idiopathic pulmonary fibrosis (bleomycin). To be noted: IP 5 mg/kg from day 7 for 3 weeks, day 28, Figure 4.
For series [7], the system named is animal model of osteoarthritis. Briefly: Animal model of osteoarthritis (anterior cruciate ligament transection). As to conditions: intra-articular injection; Figure 5.
In series [8] the test system is rabbit ear hypertrophic scar animal model. Description: Rabbit ear hypertrophic scar model. To be noted: intralesional injection 150 µM, 100 µL, once a week, four times; Figure 6.
Series [9] deals with BCL-2 (Homo sapiens, UniProt P10415). Briefly: SPR affinity measurement (Biacore 8K), Bcl-2. To be noted: read-out: KD (M) Bcl-2, 25 °C, single cycle kinetics, 1:1 model. In general terms: SPR reads the build-up and loss of mass on a sensor chip optically.
In series [10] the target is BCL-XL (Homo sapiens, UniProt Q07817). Briefly: SPR affinity measurement (Biacore 8K), Bcl-xL. To be noted: read-out: KD (M) Bcl-xL, 25 °C, single cycle kinetics, 1:1 model.

One may read the IC50 as the concentration at which inhibition is half-maximal. Consider `O=C(O)c1nc(N2CCc3ccnc(C(=O)Nc4nc5ccccc5s4)c3C2)ccc1CCOCc1ccccc1`, for which, in [1], the IC50 fell in the range of 1 to 10 µM.

Turning to `Cc1c(-c2ccc(N3CCc4ccnc(C(=O)Nc5nc6ccccc6s5)c4C3)nc2C(=O)N2CCC(CCO)CC2)cnn1Cc1cccc(C(F)(F)F)c1`, in series [1], the IC50 was in the range of 0.2 to 1 µM.

Turning to `Cc1c(CC23CC4CC(CC(C4)C2)C3)ncn1-c1ccc(N2CCc3ccnc(C(=O)Nc4nc5ccccc5s4)c3C2)nc1C(=O)O`, the IC50 in series [1] was below 0.2 µM.

As to `O=C(O)c1nc(N2CCc3ccnc(C(=O)Nc4nc5ccccc5s4)c3C2)sc1-c1cnn(CC23CC4CC(CC(C4)C2)C3)c1`, the IC50 in series [1] was in the range of 1 to 10 µM.

With `Cc1c(-c2ccc(N3CCc4ccnc(C(=O)Nc5nc6ccccc6s5)c4C3)nc2C(=O)O)cnn1Cc1cccc(C(F)(F)F)c1`, the 50% inhibitory concentration (IC50) in series [1] was below 0.2 µM.

Take `Cc1c(-c2ccc(N3CCc4ccnc(C(=O)Nc5nc6ccccc6s5)c4C3)nc2C(=O)O)cnn1Cc1cccc(F)c1`: the IC50 in series [1] is below 0.2 µM.

Take `Cc1c(CC2CCC(F)(F)CC2)ncn1-c1ccc(N2CCc3ccnc(C(=O)Nc4nc5ccccc5s4)c3C2)nc1C(=O)O`: the IC50 in [1] lay within 0.2 to 1 µM.

Regarding `Cc1c(-c2ccc(N3CCc4ccnc(C(=O)Nc5nc6ccccc6s5)c4C3)nc2C(=O)O)cnn1Cc1ccc2ccccc2c1`, the IC50 in series [1] is 0.2 to 1 µM.

With `Cc1c(-c2ccc(N3CCc4ccnc(C(=O)Nc5nc6ccccc6s5)c4C3)nc2C(=O)N2CCC(CO)CC2)cnn1CC12CC3CC(CC(C3)C1)C2`, the IC50 in [1] is below 0.2 µM.

In the case of `Cc1c(-c2ccc(N3CCc4ccnc(C(=O)Nc5nc6ccccc6s5)c4C3)nc2C(=O)O)cnn1CC1CCCCC1`, in series [1], the IC50 was below 0.2 µM. Also, the “Kinetic solubility” value in series [2] is listed as 2.57 µM.

As for `Cc1c(-c2ccc(N3CCc4ccnc(C(=O)Nc5nc6ccccc6s5)c4C3)nc2C(=O)O)cnn1Cc1cccc(C2CC2)c1`, the IC50 in series [1] lay within 0.2 to 1 µM.

As to `Cc1c(-c2ccc(N3CCc4ccnc(C(=O)Nc5nc6ccccc6s5)c4C3)nc2C(=O)O)cnn1Cc1cc(F)cc(F)c1`, in series [1], the IC50 was below 0.2 µM.

Regarding `Cc1c(-c2ccc(N3CCc4ccnc(C(=O)Nc5nc6ccccc6s5)c4C3)nc2C(=O)O)cnn1Cc1ccccc1F`, the IC50 in [1] is 0.2 to 1 µM.

Regarding `Cc1c(-c2ccc(N3CCc4ccnc(C(=O)Nc5nc6ccccc6s5)c4C3)nc2C(=O)N2CCC(CCOP(=O)(O)O)CC2)cnn1Cc1cccc(C(F)(F)F)c1`, in series [1], the concentration for half-maximal inhibition (IC50) is below 0.2 µM.

As to `Cc1nc(-c2ccc(N3CCc4ccnc(C(=O)Nc5nc6ccccc6s5)c4C3)nc2C(=O)O)c(C)n1CC12CC3CC(CC(C3)C1)C2`, the 50% inhibitory concentration (IC50) in series [1] lay within 0.2 to 1 µM.

As for `Cc1c(-c2ccc(N3CCc4cncc(C(=O)Nc5nc6ccccc6s5)c4C3)nc2C(=O)O)cnn1Cc1cccc(C(F)(F)F)c1`, the IC50 in [1] lay within 1 to 10 µM.

On to `Cc1c(-c2ccc(N3CCc4ccnc(C(=O)Nc5nc6ccccc6s5)c4C3)nc2C(=O)O)cnn1CC1CCC(F)(F)CC1`, for which the IC50 in series [1] was below 0.2 µM.

For the molecule `Cc1c(-c2ccc(N3CCc4ccnc(C(=O)Nc5nc6ccccc6s5)c4C3)nc2C(=O)O)cnn1CC12C3C4C5C3C1C5C42` (stereo not drawn), in series [1], the IC50 was in the range of 0.2 to 1 µM.

Turning to `Cc1c(-c2ccc(N3CCc4cncc(C(=O)Nc5nc6ccccc6s5)c4C3)nc2C(=O)O)cnn1CC12CC3CC(CC(C3)C1)C2`, in series [1], the IC50 fell in the range of 0.2 to 1 µM. For the same molecule, in series [2], the “Kinetic solubility” value was determined as 2.07 µM.

For the molecule `Cc1c(-c2ccc(N3CCc4ccnc(C(=O)Nc5nc6ccccc6s5)c4C3)nc2C(=O)N2CCC(CCO)CC2)cnn1CC12CC3CC(CC(C3)C1)C2`, the IC50 in series [1] was below 0.2 µM.

With `Cc1c(-c2ccc(N3CCc4ccnc(C(=O)Nc5nc6ccccc6s5)c4C3)nc2C(=O)O)cnn1Cc1cccc(C(C)(C)C)c1`, the IC50 in series [1] is 0.2 to 1 µM.

`Cc1c(-c2ccc(N3CCc4ccnc(C(=O)Nc5nc6ccccc6s5)c4C3)nc2C(=O)O)cnn1CC1CC2(C1)CC(F)(F)C2`: the IC50 in [1] is 0.2 to 1 µM.

As to `Cc1c(-c2ccc(N3CCc4ccnc(C(=O)Nc5nc6ccccc6s5)c4C3)nc2C(=O)O)cnn1Cc1cccc(Cl)c1`, the IC50 in series [1] was below 0.2 µM.

In the case of `Cc1c(CC2CCCCC2)ncn1-c1ccc(N2CCc3ccnc(C(=O)Nc4nc5ccccc5s4)c3C2)nc1C(=O)O`, the IC50 in series [1] was 0.2 to 1 µM.

As for `Cc1c(-c2ccc(N3CCc4ccnc(C(=O)Nc5nc6ccccc6s5)c4C3)nc2C(=O)OCOC(=O)C(C)C)cnn1CC12CC3CC(CC(C3)C1)C2`, the IC50 in series [1] was below 0.2 µM.

On to `Cc1c(-c2ccc(N3CCc4ccnc(C(=O)Nc5nc6ccccc6s5)c4C3)nc2C(=O)N2CCN(C)CC2)cnn1CC12CC3CC(CC(C3)C1)C2`, for which, in series [1], the IC50 fell in the range of 0.2 to 1 µM.

As for `Cc1c(-c2ccc(N3CCc4ccnc(C(=O)Nc5nc6ccccc6s5)c4C3)nc2C(=O)O)cnn1Cc1ccc(F)cc1`, in series [1], the IC50 was below 0.2 µM.

For the molecule `Cc1c(-c2ccc(N3CCc4cncc(C(=O)Nc5nc6ccccc6s5)c4C3)nc2C(=O)N2CCC(CCO)CC2)cnn1CC12CC3CC(CC(C3)C1)C2`, the IC50 in [1] was 0.2 to 1 µM.

With `Cc1c(Cc2ccccc2)ncn1-c1ccc(N2CCc3ccnc(C(=O)Nc4nc5ccccc5s4)c3C2)nc1C(=O)O`, the IC50 in series [1] lay in the range of 1 to 10 µM.

In the case of `Cc1c(-c2ccc(N3CCc4ccnc(C(=O)Nc5nc6ccccc6s5)c4C3)nc2C(=O)N2CCC(CCOP(=O)(O)O)CC2)cnn1CC12CC3CC(CC(C3)C1)C2`, the IC50 in series [1] was below 0.2 µM.

`Cc1c(-c2ncc(N3CCc4ccnc(C(=O)Nc5nc6ccccc6s5)c4C3)nc2C(=O)O)cnn1CC12CC3CC(CC(C3)C1)C2`: the IC50 in [1] is below 0.2 µM.

Consider `Cc1c(-c2sc(N3CCc4ccnc(C(=O)Nc5nc6ccccc6s5)c4C3)nc2C(=O)O)cnn1CC12CC3CC(CC(C3)C1)C2`, for which, in [1], the IC50 was 1 to 10 µM.

With `Cc1c(-c2ccc(N3CCc4nccc(C(=O)Nc5nc6ccccc6s5)c4C3)nc2C(=O)O)cnn1CC12CC3CC(CC(C3)C1)C2`, the half-inhibitory concentration (IC50) in series [1] lay in the range of 1 to 10 µM.

With `Cc1c(-c2ccc(N3CCc4ccnc(C(=O)Nc5nc6ccccc6s5)c4C3)nc2C(=O)N2CCN(CCN)CC2)cnn1CC12CC3CC(CC(C3)C1)C2`, in series [1], the IC50 was 0.2 to 1 µM.

For the molecule `Cc1c(-c2ccc(N3CCc4ccnc(C(=O)Nc5nc6ccccc6s5)c4C3)nc2C(=O)O)cnn1Cc1cc(F)cc(C(F)(F)F)c1`, the IC50 in series [1] is below 0.2 µM.

On to `Cc1cccc(Cn2ncc(-c3ccc(N4CCc5ccnc(C(=O)Nc6nc7ccccc7s6)c5C4)nc3C(=O)O)c2C)c1`, for which the half-maximal inhibitory concentration (IC50) in series [1] is below 0.2 µM.

Consider `Cc1c(-c2ccc(N3CCc4ccnc(C(=O)Nc5nc6ccccc6s5)c4C3)nc2C(=O)O)cnn1CC1CC2(CCC2)C1`, for which, in [1], the IC50 fell in the range of 0.2 to 1 µM.

Turning to `Cc1c(-c2ccc(N3CCc4ccnc(C(=O)Nc5nc6ccccc6s5)c4C3)nc2C(=O)O)cnn1Cc1cc(F)cc(Cl)c1`, the IC50 in series [1] was below 0.2 µM.

Turning to `CN(CCc1ccc(N2CCc3ccnc(C(=O)Nc4nc5ccccc5s4)c3C2)nc1C(=O)O)CC12CC3CC(CC(C3)C1)C2`, in [1], the IC50 is 1 to 10 µM.

With `Cc1c(-c2ccc(N3CCc4ccnc(C(=O)Nc5nc6ccccc6s5)c4C3)nc2C(=O)N2CCNC(=O)C2)cnn1CC12CC3CC(CC(C3)C1)C2`, the IC50 in series [1] is below 0.2 µM.

As a reminder, the Kd is the constant that tells how readily two partners part at equilibrium. Turning to `Cc1c(-c2ccc(N3CCc4ccnc(C(=O)Nc5nc6ccccc6s5)c4C3)nc2C(=O)O)cnn1CC12CC3CC(CC(C3)C1)C2`, the IC50 in series [1] was below 0.2 µM. Also, in series [3], the avascular area result is on record as “statistically significant improvement” and the neovascularization entry is listed as “statistically significant improvement”. In [4], the “epidermal thickness in HE staining” value is recorded as “decreased”; the “erythema and scaling scores” value is recorded as “reduced”. In [5], the “collagen fiber deposition in the skin (Masson staining)” value is listed as “alleviated” and the dermal thickness entry is listed as “significantly improved”. Also, the pathology scores entry in series [6] (H&E and Masson staining) was “statistically significant improvements”. The WBC result in series [6] (alveolar lavage fluid) is given as “statistically significant improvements”. In addition, the HYP entry in [6] (lung tissue) was “statistically significant improvements”. In addition, in [7], the “pathological score of Safranin O/Fast Green staining” value is “statistically significant improvements” and the “plantar mechanical pain threshold” value was “statistically significant improvements”. Also, the “Scar Elevation Index” value in series [8] is “statistically significant improvement”. Moreover, the Kd in series [9] came to 2.63e-08 M. Further, the Kd in [10] was 1.77e-11 M.

`Cc1c(-c2ccc(N3CCc4ccnc(C(=O)Nc5nc6ccccc6s5)c4C3)nc2C(=O)O)cnn1Cc1cccc(OC(F)(F)F)c1`: the IC50 in series [1] was below 0.2 µM.

In the case of `CN(C)CC#Cc1ccc(OCCCc2sc(N3CCc4ccnc(C(=O)Nc5nc6ccccc6s5)c4C3)nc2C(=O)O)c(F)c1`, the IC50 in [1] was below 0.2 µM.

As to `Cc1c(-c2ccc(N3CCc4ccnc(C(=O)Nc5nc6ccccc6s5)c4C3)nc2C(=O)O)cnn1Cc1ccccc1`, the IC50 in series [1] is below 0.2 µM. Further, the “Kinetic solubility” value in series [2] worked out at 7.81 µM.

For `O=C(O)c1nc(N2CCc3ccnc(C(=O)Nc4nc5ccccc5s4)c3C2)ccc1CCOCC12CC3CC(CC(C3)C1)C2`, the IC50 in series [1] was 1 to 10 µM.

On to `O=C(O)c1nc(N2CCc3ccnc(C(=O)Nc4nc5ccccc5s4)c3C2)ccc1C1CCN(CC23CC4CC(CC(C4)C2)C3)C1` (stereo not drawn), for which the IC50 in [1] fell in the range of 1 to 10 µM.
